The values that follow come from the supplement of paper PMC11438910.

The target of experiment [1] is pneumococcal polysaccharide Pn9N. Description: fluorescence intensity of antibody binding to polysaccharide-coupled beads; higher = stronger binding.
The target in experiment [2] is pneumococcal polysaccharide Pn9V. Described as above.
[3] abbreviates: antibody concentration 2337.65 ng/mL.
Where [4] appears, read: antibody concentration 12500 ng/mL.

The list shows a part of the results. Only a few entries rise above the background.

B1: 4-80.2 (protein)
chain 1: QVQLQESGPGLVKPSETLSLTCAVSGDSFSSYWWSWIRQPPGKGLEWIGEINGNVGSTNYNPSLKSRVTISKDASKNQFSLKLSSVTAADTAVYYCARYKEYWGQGVLVTVSS
chain 2: DVVMTQSPLSLPITPGQPASISCRSSQSLVHSNGNTYLSWYQQKPGQPPRRLIYEVSNRDSGVPDRFSGSGAGTDFTLKISRVEAEDVGVYYCGQGTHLPYSFGQGTKVEIK
As to B1, the fluorescence intensity in experiment [1] (setting [3]) stood at 17.5 MFI; in experiment [1] (setting [4]) it was 28 MFI; in experiment [2] (antibody concentration 0.1 ng/mL) it was 14.8 MFI; in experiment [2] (antibody concentration 0.534724 ng/mL) it was 14 MFI; in experiment [2] (antibody concentration 2.8593 ng/mL), 16 MFI; in experiment [2] (antibody concentration 15.2894 ng/mL), 15.5 MFI. For the same molecule, the fluorescence intensity in experiment [2] (antibody concentration 81.7561 ng/mL) came to 14.5 MFI; in experiment [2] (antibody concentration 437.17 ng/mL), 15 MFI; in experiment [2] (setting [3]) it was 18 MFI; in experiment [2] (setting [4]), 19 MFI.
